Screen size: about 300,000 compounds; about 5,400 (1.8%) were called active. Inconclusive means that the source gave no clear call. Such entries were picked first, then a sample of the others. Calls follow the shape of the full dose curve; tested in HEK293 cells. Potencies of inconclusive entries are doubtful fits and often do not repeat.
test: qHTS for inhibitors of binding or entry into cells for Marburg Virus; conditions: Marburg virus pseudotyped entry inhibition, cell reporter; activity change, negative = inhibition: at 37.8 µM (top of the series) unless noted
% is scaled to controls: 0 for no effect and ±100 for the full control effect; potency is read from the fitted curve at half-maximal effect.

| Structure (SMILES) | Potency | activity change, negative = inhibition |
| --- | --- | --- |
| Cc1ccc(NC(=O)CCCCCNS(=O)(=O)c2ccc(C)cc2)cc1 | inconclusive: 8.91 µM [inhibitor, partial curve, poor fit] | – |
| COc1cccc(/C=N/NC(=S)NCc2ccco2)c1OC | inactive | – |
| O=S(=O)(NCC1CCN(c2ccc(S(=O)(=O)N3CCOCC3)cc2)CC1)c1ccc(F)cc1 | inconclusive: 11.2 µM [inhibitor, partial curve, poor fit] | – |
| COc1ccccc1N1CCN(c2c(CN3CCCC3)c(=O)oc3ccccc23)CC1 | inconclusive: 14.1 µM [inhibitor, single point] | – |
| CCOc1ccc(S(=O)(=O)N(CC(=O)NCCc2ccc(OC)cc2)c2ccccc2)cc1 | inactive | – |
| CCOc1ccc(CN2C(=O)c3ccccc3Sc3ccc(C(=O)NCCCN4CCOCC4)cc32)cc1 | inconclusive: 14.1 µM [inhibitor, partial curve, poor fit] | – |
| C=CCN(C(=O)CCC(=O)O)[C@H]1CC(=O)N(c2ccc(OCCC)cc2)C1=O | inactive | – |
| C/C(=N\NC(=O)c1ccc([N+](=O)[O-])c(C)c1)c1ccccc1Cl | inactive | – |
| Cn1cccc1C(=O)OCC(=O)NC1CCS(=O)(=O)C1 (stereo not given) | inconclusive: 15.8 µM [activator, single point] | – |
| Nc1nc(NCCCN2CCOCC2)nc(Nc2ccc(F)cc2)c1[N+](=O)[O-] | inconclusive: 0.224 µM [inhibitor, full curve, poor fit] | – |
| COc1ccc2cc(C#N)c(N3CCOCC3)nc2c1 | inactive | – |
| COc1cc2c(c(OC)c1OC)-c1ccc(O)cc1C(NC(C)=O)CC2 (stereo not given) | inconclusive: 0.794 µM [inhibitor, full curve, poor fit] | – |
| O=C(Nc1ccc(C(=O)N2CCOCC2)cc1)Nc1cccc2ccccc12 | inconclusive: 35.5 µM [activator, partial curve, poor fit] | – |
| Cc1cc(C)cc(NS(=O)(=O)CCCS(=O)(=O)Nc2cc(C)cc(C)c2)c1 | inconclusive: 10 µM [inhibitor, partial curve, poor fit] | – |
| COc1cccc(NC(=O)CCN2C(=O)c3ccc([N+](=O)[O-])cc3C2=O)c1 | inactive | – |
| CN(C(=O)COC(=O)c1ccc2c(=O)n3c(nc2c1)CCC3)C1CCS(=O)(=O)C1 (stereo not given) | inconclusive: 35.5 µM [inhibitor, single point] | – |
| O=C(NNC(=O)c1cccc(-n2cnnn2)c1)c1ccccc1 | inconclusive: 6.31 µM [activator, partial curve, poor fit] | – |
| Cc1cc(C)n2nc(C(=O)N3CCCC(Nc4ccc(F)c(F)c4)C3)cc2n1 (stereo not given) | inactive | – |
| c1ccc(C2Nc3ccccc3-c3nc4ccccc4n32)cc1 (stereo not given) | inconclusive: 6.51 µM [activator, single point] | – |
| CCC(=O)C[C@@H](NC(=O)OC)c1ccccc1 | inconclusive: 0.0335 µM [activator, full curve, poor fit] | – |
| CC(=O)NC(=S)Nc1ccc(S(=O)(=O)N2CCOCC2)cc1 | inconclusive: 7.08 µM [inhibitor, partial curve, poor fit] | – |
| CCOC(=O)Cn1c(S(=O)(=O)Cc2ccc(Cl)cc2)nc(-c2ccccc2)c1-c1ccccc1 | inconclusive: 29.1 µM [inhibitor, single point] | – |

| Structure (SMILES) | Potency | activity change, negative = inhibition |
| --- | --- | --- |
| O=C(NNC(=O)C1CCCCC1)c1cnccn1 | inactive | – |
| COc1ccc(CCNc2oc(COc3cccc(C)c3)nc2C#N)cc1OC | inconclusive: 31.6 µM [inhibitor, single point] | – |
| COCCN(CCOC)S(=O)(=O)c1ccc(OC)cc1 | inconclusive: 8.91 µM [activator, partial curve, poor fit] | – |
| CNc1nc(Nc2ccc(C)c(Cl)c2)nc(N)c1[N+](=O)[O-] | inconclusive: 0.282 µM [inhibitor, full curve, poor fit] | – |
| Cc1c(/C(O)=C2\C(=O)C(=O)N(CCN(C)C)C2c2ccco2)cnn1-c1ccccc1 (stereo not given) | inactive | – |
| CCCNC(=O)c1cnn2c(C(F)F)cc(-c3ccccc3)nc12 | inconclusive: 25.1 µM [inhibitor, partial curve, poor fit] | – |
| CC(C)Oc1ccc(NC(=O)c2cc3ccccc3o2)cc1 | – | inconclusive: 59.8% [activator] [at 46.1 µM] |
| Cc1cc(C(F)F)n2ncc(C(=O)NC3CCCCCC3)c2n1 | inactive | – |
| CC1CCc2nc3ccccc3c(C(=O)OCC(=O)N3CCc4ccccc43)c2C1 (stereo not given) | inconclusive: 0.282 µM [inhibitor, partial curve, poor fit] | – |
| CN(C(=O)COC(=O)/C=C/c1cccc([N+](=O)[O-])c1)C1CCS(=O)(=O)C1 (stereo not given) | active: 3.55 µM | – |
| Cn1c(C(=O)O)c(CC(=O)Nc2ccccc2F)c2ccccc21 | inconclusive: 3.98 µM [activator, single point] | – |
| COc1ccc2[nH]c(C)c(CCNCc3cn(C)c4ccccc34)c2c1 | inconclusive: 35.5 µM [inhibitor, single point] | – |
| CC[n+]1c(/C=C(\C)OC)sc2ccccc21 | inactive | – |
| CCN1C(=O)[C@H]2[C@H]3[C@H](O)[C@H](O)C/C(=N/OC[C@@H](O)[C@H]4O[C@H]5OC(C)(C)O[C@H]5[C@@H]4O)[C@@H]3CC[C@@H]2C1=O | inconclusive: 0.0596 µM [inhibitor, partial curve, poor fit] | – |
| O=C(NCc1cccnc1)/C(=N\O)c1ccccc1 | inactive | – |
| C/C(Cn1cnc([N+](=O)[O-])n1)=N\NC(=O)c1ccccc1O | inactive | – |
| Cc1ccc(-c2nc3ncccc3o2)cc1NC(=O)C(C)C | inactive | – |
| CCOC(=O)c1c(C)[nH]c(C(=O)COC(=O)/C=C/c2ccc(O)c(OC)c2)c1C | inconclusive: 6.31 µM [activator, single point] | – |
| Cc1cc(O)c(C(=O)/C=C/c2ccccc2)c(=O)o1 | inactive | – |
| COc1ccc(C(=O)N2CCC[C@@H](c3ccccc3)C2)cc1 | inconclusive: 35.5 µM [inhibitor, single point] | – |
| COc1ccc(C(=O)N2CCN(c3ccc([N+](=O)[O-])c(NCCc4ccc(OC)c(OC)c4)c3)CC2)cc1 | inconclusive: 2.82 µM [inhibitor, full curve, poor fit] | – |
| O=c1cc(NCc2ccco2)[nH]c(=O)n1-c1ccc(Br)cc1 | inactive | – |

Looked up by structure from the list above:

| Structure (SMILES) | Potency | activity change, negative = inhibition |
| --- | --- | --- |
| O=c1cc(NCc2ccco2)[nH]c(=O)n1-c1ccc(Br)cc1 | inactive | – |
| CN(C(=O)COC(=O)/C=C/c1cccc([N+](=O)[O-])c1)C1CCS(=O)(=O)C1 (stereo not given) | active: 3.55 µM | – |
| Cc1c(/C(O)=C2\C(=O)C(=O)N(CCN(C)C)C2c2ccco2)cnn1-c1ccccc1 (stereo not given) | inactive | – |
| CC[n+]1c(/C=C(\C)OC)sc2ccccc21 | inactive | – |
| CC1CCc2nc3ccccc3c(C(=O)OCC(=O)N3CCc4ccccc43)c2C1 (stereo not given) | inconclusive: 0.282 µM [inhibitor, partial curve, poor fit] | – |

(cont.)

| Structure (SMILES) | Potency | activity change, negative = inhibition |
| --- | --- | --- |
| N/C(=N\NS(=O)(=O)c1cc(C(F)(F)F)cc(C(F)(F)F)c1)c1ccccn1 | inconclusive: 2.51 µM [inhibitor, partial curve, poor fit] | – |
| Cc1cc(C(=O)Nc2cccc(-c3ccc(N4CCOCC4)nn3)c2)ccc1[N+](=O)[O-] | inconclusive: 35.5 µM [inhibitor, single point] | – |
| CC(Oc1ccccc1)C(=O)N1CCN=C1SCc1ccccc1F (stereo not given) | inconclusive: 10 µM [inhibitor, partial curve, poor fit] | – |
| Cc1nc([N+](=O)[O-])c(Br)n1CC(=O)c1ccccc1 | inconclusive: 11.2 µM [inhibitor, single point] | – |
| Nc1cc(SCc2ccc([N+](=O)[O-])cc2)ncn1 | inconclusive: 35.5 µM [inhibitor, single point] | – |
| CCOCCCN1C(=O)CN(C2CCC(C)CC2)C(=O)C1c1ccc(C)cc1 (stereo not given) | inconclusive: 35.5 µM [inhibitor, single point] | – |
| Cc1ccc2nc(-c3ccc(SCC(=O)Nc4ccc5c(c4)OCCO5)nc3)[nH]c2c1 | inactive | – |
| CCNC(=S)NNC(=O)c1cc(-c2cccc(OC)c2)nc2ccccc12 | inconclusive: 11.6 µM [inhibitor, partial curve, poor fit] | – |
| CCOC(=O)Cn1c(S(=O)(=O)Cc2cccc(F)c2)nc(-c2ccccc2)c1-c1ccccc1 | active: 2.59 µM | – |
| CCC(=O)N1c2ccccc2C(C)(c2ccccc2)CC1(C)C (stereo not given) | inactive | – |
| Cc1ccc(CN2CCN(Cc3cn[nH]c3-c3ccccc3)CC2CCO)o1 (stereo not given) | inconclusive: 2.82 µM [inhibitor, single point] | – |
| COc1ccc(-c2nc(-c3ccccc3)c(Nc3c(C)cccc3C)o2)cc1 | inconclusive: 0.0038 µM [inhibitor, full curve, poor fit] | – |
| CCN(CC)S(=O)(=O)c1cccc(-c2n[nH]c(=S)n2/N=C/c2ccc(Br)cc2)c1 | inconclusive: 6.31 µM [activator, single point] | – |
| COc1ccc(NC(=O)CSc2nc3c(oc4ccccc43)c(=O)n2-c2ccccc2)cc1OC | inactive | – |
| CCOC(=O)N=Nc1c(O)n(CC)c2ccccc12 | inconclusive: 7.08 µM [activator, partial curve, poor fit] | – |
| Cc1c(NS(=O)(=O)c2cccc(C(=O)N3CCC(C(N)=O)CC3)c2)c(=O)n(-c2ccccc2)n1C | inconclusive: 11.2 µM [activator, partial curve, poor fit] | – |
| Cc1ccccc1C(=O)N/N=C/c1ccccn1 | inconclusive: 35.5 µM [inhibitor, single point] | – |
| O=C(NCc1cccnc1)C1CCN(c2ccc(S(=O)(=O)N3CCOCC3)cc2Cl)CC1 | inconclusive: 15.8 µM [inhibitor, partial curve, poor fit] | – |
| C=C(C)Cn1c(N2CCC(Cc3ccccc3)CC2)nc2c1c(=O)[nH]c(=O)n2C | inconclusive: 35.5 µM [inhibitor, single point] | – |
| COc1cc(C2C=C(C34CC5CC(CC(C5)C3)C4)NC(=S)N2)cc(OC)c1OC (stereo not given) | inconclusive: 10 µM [inhibitor, partial curve] | – |
| CSCCC(NC(=O)c1ccco1)C(=O)N1CCN(C(c2ccccc2)c2ccccc2)CC1 (stereo not given) | inconclusive: 35.5 µM [inhibitor, partial curve, poor fit] | – |
